Source: paper PMC3277884
No constants are given. Whether binding was seen depends on the method and setting. Binding seen in cells or lysates may run through a third protein. Some results given as binding are weak or reduced against the parent protein; the word gives no strength.

By UniProt entry, the sequences of proteins in these tests, tags left out.
UniProt Q9CQJ4: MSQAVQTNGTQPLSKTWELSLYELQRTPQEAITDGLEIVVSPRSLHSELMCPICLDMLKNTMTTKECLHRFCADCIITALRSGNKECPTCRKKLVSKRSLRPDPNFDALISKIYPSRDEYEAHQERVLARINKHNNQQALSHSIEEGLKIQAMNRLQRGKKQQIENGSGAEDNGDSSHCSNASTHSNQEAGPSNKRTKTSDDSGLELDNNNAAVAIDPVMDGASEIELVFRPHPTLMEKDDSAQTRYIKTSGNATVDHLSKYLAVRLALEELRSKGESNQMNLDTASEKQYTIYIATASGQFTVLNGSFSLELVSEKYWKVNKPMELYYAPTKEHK
UniProt Q8VDS3: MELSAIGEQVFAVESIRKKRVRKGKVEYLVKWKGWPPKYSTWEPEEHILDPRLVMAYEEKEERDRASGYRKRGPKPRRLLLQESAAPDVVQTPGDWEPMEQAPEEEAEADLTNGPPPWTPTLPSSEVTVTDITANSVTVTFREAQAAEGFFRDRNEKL

Biological target: Ring1b (mouse (endogenous in ESCs)) (UniProt Q9CQJ4)
Experiment: co-IP; IP with anti-Ring1b antibodies from cellular extracts of ESCs (d0) or ESCs subjected to neural differentiation (d5), immunoblots for Ring1b and Cbx7

Cbx7 (from UniProt Q8VDS3 1-158) was tested, and the binding was “binds”.
